Test results from EP3539984A1.
Results are given in words; binding and its absence hold for the method and conditions named. Some binding calls cover weakened binding; strength is not graded here.

By UniProt entry, the sequences of proteins in these tests, tags left out. Where a name states a change or a piece, a line headed by the entry shows the natural chain unless it says otherwise.
UniProt P07333: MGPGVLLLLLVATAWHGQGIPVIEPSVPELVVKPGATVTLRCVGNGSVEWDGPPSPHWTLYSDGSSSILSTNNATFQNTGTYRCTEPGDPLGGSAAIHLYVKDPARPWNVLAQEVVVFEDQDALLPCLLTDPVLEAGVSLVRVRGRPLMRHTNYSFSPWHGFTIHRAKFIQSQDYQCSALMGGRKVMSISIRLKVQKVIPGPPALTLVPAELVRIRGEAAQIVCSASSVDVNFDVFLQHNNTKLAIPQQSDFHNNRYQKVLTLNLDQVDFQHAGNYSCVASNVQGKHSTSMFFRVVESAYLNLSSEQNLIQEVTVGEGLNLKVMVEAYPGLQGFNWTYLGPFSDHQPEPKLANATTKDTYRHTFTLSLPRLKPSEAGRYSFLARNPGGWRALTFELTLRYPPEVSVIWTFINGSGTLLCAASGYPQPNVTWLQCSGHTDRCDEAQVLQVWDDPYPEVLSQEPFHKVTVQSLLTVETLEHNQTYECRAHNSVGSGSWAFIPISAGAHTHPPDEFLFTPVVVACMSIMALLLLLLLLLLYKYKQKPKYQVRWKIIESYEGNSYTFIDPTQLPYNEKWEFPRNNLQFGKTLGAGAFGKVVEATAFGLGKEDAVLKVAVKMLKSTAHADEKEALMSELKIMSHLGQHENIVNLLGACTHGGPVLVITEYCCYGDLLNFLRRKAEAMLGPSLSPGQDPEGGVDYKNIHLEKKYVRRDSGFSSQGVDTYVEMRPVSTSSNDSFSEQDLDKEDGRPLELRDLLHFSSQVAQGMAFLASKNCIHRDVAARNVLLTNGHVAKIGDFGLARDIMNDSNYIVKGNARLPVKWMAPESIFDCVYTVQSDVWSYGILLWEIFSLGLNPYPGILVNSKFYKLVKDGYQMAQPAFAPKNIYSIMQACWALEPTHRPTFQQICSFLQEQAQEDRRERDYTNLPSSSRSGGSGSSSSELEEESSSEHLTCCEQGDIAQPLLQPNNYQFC

B1: huAb7 (antibody, human IgG4 S228P, kappa, V domains shown)
VH: QVQLVQSGAEVKKPGSSVKVSCKASGYTFSDFNIHWVRQAPGQGLEWMGYINPYTDVTVYNEKFKGRVTITSDKSTSTAYMELSSLRSEDTAVYYCASYFDGTFDYALDYWGQGTLVTVSS
VL: EIVLTQSPATLSLSPGERATLSCRASESVDNYGLSFMNWYQQKPGQAPRLLIYTASNLESGIPARFSGSGSGTDFTLTISSLEPEDFAVYYCQQSKELPWTFGQGTKVEIKR
B2: huAb8 (antibody, human IgG4 S228P, kappa, V domains shown)
VH: QVQLVQSGAEVKKPGSSVKVSCKASGYTFSDFNIHWVRQAPGQGLEWMGYINPYTDVTVYNEKFKGRVTITSDKSTSTAYMELSSLRSEDTAVYYCASYFDGTFDYALDYWGQGTLVTVSS
VL: EIVLTQSPATLSLSPGERATLSCRASESVDNYGLSFMNWYQQKPGQAPRLLIYTASNLESGIPARFSGSGSRTDFTLTISSLEPEDFAVYYCQQSKELPWTFGQGTKVEIKR
B3: huAb9 (antibody, human IgG4 S228P, kappa, V domains shown)
VH: QVQLVQSGAEVKKPGSSVKVSCKASGYTFSDFNIHWVRQAPGQGLEWMGYINPYTDVTVYNEKFKGRVTITSDKSTSTAYMELSSLRSEDTAVYYCASYFDGTFDYALDYWGQGTLVTVSS
VL: EIVVTQSPATLSLSPGERATLSCRASESVDNYGLSFMNWFQQKPGQAPRLLIYTASNLESGIPARFSGSGSRTDFTLTISSLEPEDFAVYYCQQSKELPWTFGQGTKVEIKR
B4: huAb10 (antibody, human IgG4 S228P, kappa, V domains shown)
VH: QVQLVQSGAEVKKPGSSVKVSCKASGYTFSDFNIHWVRQAPGQGLEWIGYINPYTDVTVYNEKFKGRATLTSDKSTSTAYMELSSLRSEDTAVYYCASYFDGTFDYALDYWGQGTLVTVSS
VL: EIVLTQSPATLSLSPGERATLSCRASESVDNYGLSFMNWYQQKPGQAPRLLIYTASNLESGIPARFSGSGSGTDFTLTISSLEPEDFAVYYCQQSKELPWTFGQGTKVEIKR
B5: huAb11 (antibody, human IgG4 S228P, kappa, V domains shown)
VH: QVQLVQSGAEVKKPGSSVKVSCKASGYTFSDFNIHWVRQAPGQGLEWIGYINPYTDVTVYNEKFKGRATLTSDKSTSTAYMELSSLRSEDTAVYYCASYFDGTFDYALDYWGQGTLVTVSS
VL: EIVLTQSPATLSLSPGERATLSCRASESVDNYGLSFMNWYQQKPGQAPRLLIYTASNLESGIPARFSGSGSRTDFTLTISSLEPEDFAVYYCQQSKELPWTFGQGTKVEIKR
B6: huAb12 (antibody, human IgG4 S228P, kappa, V domains shown)
VH: QVQLVQSGAEVKKPGSSVKVSCKASGYTFSDFNIHWVRQAPGQGLEWIGYINPYTDVTVYNEKFKGRATLTSDKSTSTAYMELSSLRSEDTAVYYCASYFDGTFDYALDYWGQGTLVTVSS
VL: EIVVTQSPATLSLSPGERATLSCRASESVDNYGLSFMNWFQQKPGQAPRLLIYTASNLESGIPARFSGSGSRTDFTLTISSLEPEDFAVYYCQQSKELPWTFGQGTKVEIKR
B7: huAb13 (antibody, human IgG4 S228P, kappa, V domains shown)
VH: QVQLVQSGAEVKKPGSSVKVSCKASGYIFTDYNMHWVRQAPGQGLEWMGEINPNNGVVVYNQKFKGRVTITVDKSTSTAYMELSSLRSEDTAVYYCTRALYHSNFGWYFDSWGQGTLVTVSS
VL: EIVLTQSPATLSLSPGERATLSCKASQSVDYDGDSHMNWYQQKPGQAPRLLIYTASNLESGIPARFSGSGSGTDFTLTISSLEPEDFAVYYCQQGNEDPWTFGQGTKVEIKR
B8: huAb14 (antibody, human IgG4 S228P, kappa, V domains shown)
VH: QVQLVQSGAEVKKPGSSVKVSCKASGYIFTDYNMHWVRQAPGQGLEWMGEINPNNGVVVYNQKFKGRVTITVDKSTSTAYMELSSLRSEDTAVYYCTRALYHSNFGWYFDSWGQGTLVTVSS
VL: DIVLTQSPATLSLSPGERATLSCKASQSVDYDGDSHMNWYQQKPGQAPRLLIYTASNLESGIPARFSGSGSGADFTLTISSLEPEDFAVYYCQQGNEDPWTFGQGTKVEIKR
B9: huAb15 (antibody, human IgG4 S228P, kappa, V domains shown)
VH: QVQLVQSGAEVKKPGSSVKVSCKASGYIFTDYNMHWVRQAPGQGLEWMGEINPNNGVVVYNQKFKGTTTLTVDKSTSTAYMELSSLRSEDTAVYYCTRALYHSNFGWYFDSWGQGTLVTVSS
VL: EIVLTQSPATLSLSPGERATLSCKASQSVDYDGDSHMNWYQQKPGQAPRLLIYTASNLESGIPARFSGSGSGTDFTLTISSLEPEDFAVYYCQQGNEDPWTFGQGTKVEIKR
B10: huAb16 (antibody, human IgG4 S228P, kappa, V domains shown)
VH: QVQLVQSGAEVKKPGSSVKVSCKASGYIFTDYNMHWVRQAPGQGLEWMGEINPNNGVVVYNQKFKGTTTLTVDKSTSTAYMELSSLRSEDTAVYYCTRALYHSNFGWYFDSWGQGTLVTVSS
VL: DIVLTQSPATLSLSPGERATLSCKASQSVDYDGDSHMNWYQQKPGQAPRLLIYTASNLESGIPARFSGSGSGADFTLTISSLEPEDFAVYYCQQGNEDPWTFGQGTKVEIKR

Molecular target: human CSF1R ECD (human) (UniProt P07333)
Test: binding test on CSF1R ECD, as described in WO 2011/140249

binding, binds:
B1
B2
B3
B4
B5
B6
B7
B8
B9
B10
